# Assay results: PubChem BioAssay AID504467 (National Center for Advancing Translational Sciences (NCATS), 2011)
# About 7,700 (2.3%) of roughly 330,000 compounds were called active. The shares of active, inactive and inconclusive entries below differ from those in the screen. Calls come from the whole dose curve; as a rule, active = well fitted inhibition curve with a large enough effect; inconclusive = small, poorly fitted or top-dose-only effect, or effect the other way; inactive = flat fitted curve, though single readings scatter. Where the call is inconclusive, the potency comes from a doubtful curve fit.
# Assay: qHTS screen for small molecules that inhibit ELG1-dependent DNA repair in human embryonic kidney (HEK293T) cells expressing luciferase-tagged ELG1; note: nearly all actives have a fitted effect of over 55% in size
# Conditions: HEK293T ELG1-luciferase reporter, luminescence, 16 h, DNA damage induced by 5-fluorouridine; activity change, negative = inhibition: at 46.1 µM (top of the series)
# How it was run: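 Luminescence from the luciferase reporter, measured 30 min after ONE-Glo reagent at room temperature, was the read-out. Beforehand, 2,000 cells per well were exposed for 16 hr at 37 °C to 5-fluorouridine together with compound or vehicle.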
# % is set by controls: 0 for no effect and ±100 for the full control effect; potency is the fitted concentration of half-maximal effect.
SMILES,Potency,"activity change, negative = inhibition"
CC1CCCN(C(=O)COC(=O)Cc2c[nH]c3ccccc23)C1 (stereo not given),"inconclusive: 16.4 µM [activator, partial curve, poor fit]",–
CC(C)OC(=O)c1cccc(-c2ccc(C=O)o2)c1,"inconclusive: 25.9 µM [activator, single point]",–
CN(C)c1ccc(/C=N\NC(=S)SCN2C(=O)C3CCC(C)(C2=O)C3(C)C)cc1 (stereo not given),"inconclusive: 20.6 µM [activator, single point]",–
CN(CC1CCCO1)S(=O)(=O)c1ccc(C(=O)Nc2ccc(S(N)(=O)=O)cc2)cc1 (stereo not given),–,inactive: 9.42%
Nc1c(Cl)ncnc1N1CCN(c2ncnc(Cl)c2N)CC1,"inconclusive: 5.17 µM [inhibitor, full curve]",–
CC(=O)NC(CC(=O)OCC(=O)NCCc1ccccc1)c1ccccc1 (stereo not given),"inconclusive: 5.17 µM [activator, single point]",–
CCOC(=O)/C(C#N)=C\c1cn(C)c2ccccc12,active: 5.8 µM,–
O=C(COc1cccc2ccccc12)N/N=C/c1ccc(Sc2nc3ccccc3s2)o1,–,inactive: -12.4%
COc1cc(OC)cc(-c2c(-c3ccc(F)cc3)c3cc(-c4cnc(OC)nc4)ccc3n2C)c1,"inconclusive: 2.59 µM [inhibitor, partial curve]",–
Cc1onc(-c2ccccc2)c1C(=O)OCc1nnc(-c2ccccc2)o1,"inconclusive: 29.1 µM [inhibitor, single point]",–
CC(=O)NC(CC(=O)NNC(=O)c1cccs1)c1ccccc1 (stereo not given),"inconclusive: 0.58 µM [activator, single point]",–
Cc1cc(C)c2c(=O)[nH]n(C3CCOC(C)(C)C3)c2n1 (stereo not given),–,inconclusive: 35.6% [activator]
O=C1C=CC(=O)N1CCCCCCN1C(=O)C=CC1=O,active: 23.1 µM,–
Cc1sc(NC(=O)CN2C(=O)NC3(CCCC3)C2=O)nc1-c1ccc(F)cc1,"inconclusive: 7.3 µM [inhibitor, single point]",–
COc1ccc2nc(SCC(=O)N3CCCCC3)c(C#N)cc2c1,–,inactive: -1.99%
O=S(=O)(NCc1cccs1)c1ccc(Br)cc1,–,inactive: -1.86%
O=C(CCNC(=O)c1ccco1)NCc1ccc(F)cc1,"inconclusive: 4.61 µM [activator, single point]",–
COc1ccccc1/C=C/C=C(\C#N)C(=O)NC(C)c1ccccc1 (stereo not given),–,inactive: -17.4%
Cc1csc(N(C(=O)c2ccccc2F)c2ccccc2)n1,–,inactive: -17.7%
CCc1cccc2c(C(=O)COC(=O)c3cnc(C)cn3)c[nH]c12,–,inactive: -1.55%
O=C(N/C(=C/c1cccc([N+](=O)[O-])c1)C(=O)N1CCCCCC1)c1cccs1,"inconclusive: 29.1 µM [inhibitor, single point]",–
CSc1ccc(CNCCCN(C)C)cc1,–,inactive: -18.2%
COc1ccc(OCCN2CCN(S(=O)(=O)c3ccccc3C(F)(F)F)CC2)cc1,"inconclusive: 29.1 µM [inhibitor, partial curve, poor fit]",–
O=C(Nc1ccc(NC(=O)c2ccco2)c(Cl)c1)c1ccc2c(c1)OCCO2,"inconclusive: 3.66 µM [activator, full curve]",–

SMILES,Potency,"activity change, negative = inhibition"
Clc1ccc(-c2nnc(-c3ccccc3)o2)c(Cl)c1,"inconclusive: 1.84 µM [activator, partial curve]",–
Cc1ccc(-n2nc(C)c3c(C)c(CCC(=O)O)c(C)nc32)cc1C,–,inactive: 0.239%
CCn1nc([N+](=O)[O-])c(C(C#N)c2nc3cc(C(F)(F)F)ccc3s2)c(Cl)c1=O (stereo not given),–,inactive: -8.96%
CC(=O)c1c(C)[nH]c(C(=O)OCC(=O)Nc2cc(S(=O)(=O)N3CCCC3)ccc2Cl)c1C,active: 16.4 µM,–
COCCN(C(=O)CSc1nnc(-c2cccc(C)c2)n1C)c1c(N)n(Cc2ccccc2)c(=O)[nH]c1=O,–,inactive: 9.46%
BrC(/C=N/N1CCN(Cc2ccccc2)CC1)=C/c1ccccc1,"inconclusive: 23.1 µM [inhibitor, single point]",–
Cc1cccc(-c2noc(CN(C(=O)C(c3ccccc3)c3ccccc3)C(C)C)n2)c1,"inconclusive: 18.4 µM [inhibitor, single point]",–
COC(=O)c1cc2nc(-c3ccc(OC)cc3)cc(C(F)(F)F)n2n1,–,inactive: -5.34%
CCOC(=O)c1sc2nc(CC(=O)OC)nc(N(C)CCc3ccccn3)c2c1C,–,inactive: -28.2%
NC(=O)c1ccccc1OCC(=O)Nc1ccc2c(c1)CCC2,"inconclusive: 20.6 µM [activator, partial curve, poor fit]",–
Cc1cc(C(=O)COC(=O)c2ccc(O)cc2)c(C)n1-c1ccccc1F,"inconclusive: 9.2 µM [activator, partial curve]",–
CC12CCC(C(=O)Nc3ccccc3Cl)([C@H](Br)C1=O)C2(C)C (stereo not given in full),"inconclusive: 20.6 µM [inhibitor, partial curve, poor fit]",–
N#C/C(=C(/O)c1ccc(Br)s1)c1nc2ccccc2[nH]1,"inconclusive: 4.11 µM [inhibitor, single point]",–
COc1ccc(OC)c2[nH]c(C(=O)N/N=C/c3ccccc3O)cc12,"inconclusive: 2.31 µM [inhibitor, partial curve, poor fit]",–
CSCC[C@H](NC(=O)[C@H]1N2C(=O)c3ccccc3C2SC1(C)C)C(=O)NCc1ccncc1 (stereo not given in full),–,inactive: 1.35%
O=C(Nc1ccccc1)c1cnc2n(c1=O)CCS2,"inconclusive: 16.4 µM [activator, partial curve]",–
Cc1ccc(C(=O)NCCCN2CCOCC2)cc1Cl,"inconclusive: 0.891 µM [activator, partial curve, poor fit]",–
COc1ccc(S(=O)(=O)N2CCCCCC2)cc1C(=O)OCC(=O)NC(C)(C)C,"inconclusive: 16.4 µM [inhibitor, single point]",–
Cc1cccc(/C=C2/Sc3ccc(C(=O)N4CCOCC4)cc3NC2=O)c1,"inconclusive: 20.6 µM [inhibitor, single point]",–
O=C(NNC(=O)c1cc(-c2ccncc2)nc2ccccc12)c1ccccc1F,"inconclusive: 11.2 µM [activator, partial curve]",–
CC1=NN(c2nc(-c3ccc(C)cc3)cs2)C(=O)C1N=Nc1cccc(O)c1 (stereo not given),–,inactive: -15.4%
Cc1ccc(-c2csc(NCCn3c(-c4ccncc4)nc4cc(C(F)(F)F)ccc43)n2)cc1,"inconclusive: 20.6 µM [inhibitor, single point]",–
Cc1cccc(-n2c(O)c(C=Nc3ccccc3O)c3ccccc3c2=O)n1,active: 23.1 µM,–
C[C@]12C=CC(=O)C=C1CC[C@H]1[C@@H]3C[C@@H](O)[C@](O)(C(=O)CO)[C@@]3(C)C[C@H](O)[C@@]12F,"inconclusive: 20.6 µM [activator, partial curve, poor fit]",–

SMILES,Potency,"activity change, negative = inhibition"
CCN(CC)CCNC(=O)c1ccc(NC(=O)COc2ccccc2F)cc1,–,inactive: 0.809%
CCN(CC)C(=O)C(C)N(C#N)c1nc(NC(C)C)nc(NC(C)C)n1 (stereo not given),–,inactive: 13.8%
Cn1c(=O)c(=O)n(C)c2cc(S(=O)(=O)Nc3ccc4c(c3)OCCO4)ccc21,"inconclusive: 18.4 µM [activator, partial curve]",–
CC(c1ccc(F)cc1)n1c(Cn2ncc3ccccc3c2=O)n[nH]c1=S (stereo not given),–,inactive: -20.9%
COc1ccc(NC(=O)CSc2nc(C)cs2)c([N+](=O)[O-])c1,"inconclusive: 20.6 µM [activator, partial curve]",–
CC(c1ccncn1)N(C)Cc1nc(-c2ccc(C(F)(F)F)cc2)no1 (stereo not given),–,inactive: -1.45%
Cn1cc(CN2CCCC(C(=O)c3cc(F)ccc3F)C2)c2ccccc21 (stereo not given),"inconclusive: 0.73 µM [inhibitor, full curve]",–
COc1ccc(CNC(=O)C(c2ccco2)N(C(=O)c2csnn2)c2cccc(C)c2C)cc1 (stereo not given),"inconclusive: 23.1 µM [inhibitor, partial curve, poor fit]",–
Cc1ccccc1OCC(=O)OCC(=O)NCCc1ccccc1,"inconclusive: 29.1 µM [activator, single point]",–
CN1CCN(C(=O)CCN2C(=O)c3ccccc3S2(=O)=O)CC1,–,inactive: 14.9%
COc1cccc(NC(=O)Nc2ccc(C(C)(C)C)cc2)c1,"inconclusive: 3.66 µM [activator, single point]",–
Cn1c(CNC(=O)OC(C)(C)C)n[nH]c1=S,–,inactive: 18.9%
Cc1ccc(CNC(=O)C(=O)NCC2CCCN2S(=O)(=O)c2cc(C)ccc2C)cc1 (stereo not given),"inconclusive: 25.9 µM [inhibitor, single point]",–
CCc1ccc(N2C(=O)C3CCCN3C2=S)cc1 (stereo not given),–,inactive: 12.1%
COc1ccc(-c2n[nH]c(=S)n2C2CCCCC2)cc1,–,inactive: -14.1%
Cc1ccc(S(=O)(=O)NCc2ccccc2)cc1C(=O)N(C)Cc1ccc(F)cc1,–,inactive: -10.3%
O=C(CSc1cn(Cc2ccccc2)c2ccccc12)N1CCOCC1,"inconclusive: 16.4 µM [activator, partial curve]",–
Cc1ccc(S(=O)(=O)N2CCN(c3ncnc4ccccc34)CC2)cc1,"inconclusive: 6.51 µM [inhibitor, partial curve, poor fit]",–
COc1cc(OC)cc(-c2c(C#Cc3ccsc3)c3cc(-c4ccccc4OC)ccc3n2C)c1,"inconclusive: 13 µM [activator, single point]",–
Cc1cccc(CN2CCC(C(=O)Nc3cccc(-c4cscn4)c3)CC2)n1,"inconclusive: 29.1 µM [inhibitor, single point]",–
Cc1ccc(C(C)(C)C)cc1S(=O)(=O)N1CCC(C(=O)N2CCN(c3ccc(O)cc3)CC2)CC1,"inconclusive: 2.59 µM [inhibitor, full curve]",–
Cc1nc2cc(NC(=O)Nc3cccc(F)c3)ccc2n1C,"inconclusive: 0.517 µM [activator, full curve]",–

# 2 of the compounds above, tab-delimited:
SMILES	Potency	activity change, negative = inhibition
Cc1cccc(CN2CCC(C(=O)Nc3cccc(-c4cscn4)c3)CC2)n1	inconclusive: 29.1 µM [inhibitor, single point]	–
Cc1ccc(C(C)(C)C)cc1S(=O)(=O)N1CCC(C(=O)N2CCN(c3ccc(O)cc3)CC2)CC1	inconclusive: 2.59 µM [inhibitor, full curve]	–
